According to patent publication US20250255890A1, “PSILOCYBIN CULTIVATION, EXTRACTION, AND THERAPEUTIC USE” (Golden Fleece Research Group Inc., priority 2024, published 2025):
Entries after “also recorded” stand apart in the source; their conditions may differ. At least one compound was matched to its structure with a doubt left.

System: patients with certain neurological and mental disorders
Assay: Therapeutic effects of psilocybin in selected patients (patient experiences)
Assay type: in vivo, human
Conditions: for Experiences: Person, with psilocybin treatment
Description: In one aspect, psilocybin is effective in treating and reducing ADHD, anxiety, ADD and the symptoms of Tourette Syndrome. […] Some patients suffered significant side effects when taking prescription drugs for the respective indications.

## CN(C)CCc1c[nH]c2cccc(OP(=O)(O)O)c12 [Psilocybin, psilocybin]
Indication ADD
  Experiences: More focused. Elevated creativity
Indication Tourette Syndrome
  Experiences: Reduced major episodes,; also recorded: improved sleeps
Indications ADHD, Anxiety
  Experiences: Wave of calmness,; also recorded: boosted creativity
Identified group of selected patients after intaking the psilocybin products
  therapeutic effects in reducing and treating anxiety, ADHD, ADD and Tourette Syndrome: significant therapeutic effects
